Experimental data: article PMC11513070
These are yes or no findings as the source states them, for the method shown. Binding seen in cells or lysates may run through a third protein. A result given as binding can be weak or reduced; the word gives no strength. Where a sequence is shown, tags or fusion partners need not be part of it.

Biological target: T1, Frey1-3xFLAG (UniProt Q8CF31)
T1 sequence: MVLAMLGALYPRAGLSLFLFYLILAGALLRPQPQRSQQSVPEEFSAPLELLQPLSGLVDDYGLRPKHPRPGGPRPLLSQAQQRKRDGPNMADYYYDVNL
Experiment: co-IP; Frey1-3xFLAG co-expressed with SPPL2c-myc variants in HEK293T cells (wild type or calnexin-deficient clone #9) and precipitated from DDM lysates with anti-FLAG beads; western blot

binding: binds
Substance: SPPL2c Nt-SPP-myc (SPPL2c with the N-terminus of SPP) (mouse) (enzyme)
